# Experimental data taken from the supplement of paper PMC3334620.
# Whole data set: some 33,000 sequences, median “E-score (-0.5 to 0.5)” near -8e-05, cut for the highest 2% near 0.23. The list shows a part of the results.
# Molecular target: T1, Nrg2 (UniProt P38082)
# T1 sequence: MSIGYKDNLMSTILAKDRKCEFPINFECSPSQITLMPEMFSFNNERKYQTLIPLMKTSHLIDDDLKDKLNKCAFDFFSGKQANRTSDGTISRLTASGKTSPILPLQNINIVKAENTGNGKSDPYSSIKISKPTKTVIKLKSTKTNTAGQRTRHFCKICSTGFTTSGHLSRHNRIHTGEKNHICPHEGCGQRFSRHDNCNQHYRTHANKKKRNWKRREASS
# Test: PBM E-score (8-mer binding enrichment) (E-score (-0.5 to 0.5)); higher = stronger / more preferred TF binding
# Settings: protein concentration: 100 nM; construct: GST-full length
# Outline: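 Universal all-10-mer Agilent arrays, fresh or stripped once, were converted to double-stranded form by primer extension. GST-tagged yeast transcription factors from PURExpress in vitro transcription/translation, full-length or DNA-binding domain only, were applied at about 100-200 nM and detected with fluorescent anti-GST. After masliner normalisation, the Universal PBM Analysis Suite scored each ungapped eight-base word together with its reverse complement by E-score.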
row,Sequence,PBM E-score
1,AATAGCCT,-0.0764
2,ACAGCATG,-0.115
3,AGGATATA,0.088
4,GCTTTAGA,-0.196
5,CCAGTGTA,0.032
6,CACACATC,-0.066
7,TTCAAAAA,0.0879
8,TAAGCTTA,0.112
9,CAAGCAAA,0.0419
10,CCATCTGA,0.00443
11,TGGAGACA,-0.0105
12,GTCGGACA,-0.0478
13,TCAGTTAA,-0.059
14,ACTGCATG,0.0846
15,AACGCCGC,-0.067
16,CCCTATAG,0.0795
17,GTAGTAAC,-0.0426
18,GATCCAAC,-0.0228
19,CGTTTACC,0.0492
20,CTTACAAC,0.0206
21,CTGAGCAG,-0.0182
22,GCGACGCC,-0.043
23,CGGGTGAC,-0.0611
24,AACTTCCT,0.105
25,CAGTAGAA,0.0679

# Laid out differently: results already given.
row | Sequence | PBM E-score
6 | CACACATC | -0.066
7 | TTCAAAAA | 0.0879
16 | CCCTATAG | 0.0795

# (continued)

row,Sequence,PBM E-score
1,CTATTCTA,0.133
2,AGAATATG,0.0751
3,GCCGTCAC,0.00646
4,CACAAGGA,-0.0663
5,GTTCGAGA,0.0527
6,ATAAAGCC,-0.0662
7,AATTGCGG,-0.0123
8,ACTGGGGG,-0.421
9,CGATAGGC,-0.0639
10,CTTCATCA,0.174
11,GCTGACGA,0.0808
12,CCCGGAGA,-0.138
13,CGTGAAAA,0.0397
14,GTGCTGCA,-0.0396
15,GGAGGAAA,-0.0999
16,GCGTGCGA,-0.103
17,ATCAGGGC,0.127
18,GATAACAC,0.0127
19,CAAGAATG,-0.0199
20,ACATACAC,0.0363
21,AGGTATCC,0.0496
22,ATGGTGAC,-0.134
23,AGGGACTA,0.242
24,AATTCCCG,-0.0292
25,AATGATGG,0.157

row,Sequence,PBM E-score
1,CAGAACTC,0.0408
2,TCGATTCA,0.152
3,CCTCATCA,0.063
4,ATCTCTCG,0.0246
5,GTTACAGA,-0.14
6,ATACGAAT,0.00342
7,CCCACGCC,-0.228
8,ACCGTTAC,-0.118
9,CACTCTAA,0.0593
10,GACGCCTC,-0.0713
11,GGGAATTA,0.0505
12,CATTATAG,-0.0331
13,GCAGTTAC,0.063
14,CGAATGAC,0.175
15,GTAAAGAA,0.045
16,CATTTAAG,0.0535
17,AAGAAGGC,-0.197
18,CGTAGCTC,0.0178
19,CACCCATG,0.0717
20,ATTCGCAA,0.174
21,AAAGGCAA,0.046
22,CACTACTA,0.0799
23,GGGGTCTA,0.203
24,GTATCCCA,-0.0421
25,AAGTTTAT,0.173

row,Sequence,PBM E-score
1,AGGTGCAC,0.162
2,GCATAGCA,-0.0131
3,GACCTTGC,-0.128
4,AGATCATA,0.199
5,CCGCAAGA,0.0368
6,ACAGAAAA,0.133
7,AAACTCCT,-0.208
8,AATATAGA,0.0664
9,AGTGCGTG,0.0141
10,GCATCGCC,-0.143
11,ATGAGACA,0.0867
12,GACCGAAC,-0.0344
13,GGCAAAGA,0.0887
14,AATGGTTC,-0.0121
15,GAGTGGCC,-0.014
16,ACACGTCG,-0.16
17,CAAAGCTG,0.136
18,AACCGAGT,-0.207
19,AAGGTTAT,-0.072
20,AACTGTTA,0.195
21,CCTGCGTA,-0.135
22,AGTAGTAC,0.156
23,CAATAAGC,-0.032
24,GGCATACC,-0.0498
25,ATATGAGC,0.141

# A second format for some results above:
row | Sequence | PBM E-score
20 | ACATACAC | 0.0363
21 | AGGTATCC | 0.0496
22 | ATGGTGAC | -0.134
23 | AGGGACTA | 0.242

# Next part:

row,Sequence,PBM E-score
1,TCATGGCA,-0.0202
2,CGTCGAGC,-0.0344
3,TAACCCAA,-0.00379
4,AGTAAGGA,-0.00565
5,CCCAATTC,0.176
6,CAATCGCG,0.108
7,ACGCGACC,-0.0575
8,GGCAGGGA,0.0907
9,CATTTGGC,-0.0102
10,ACGCCTGA,0.0835
11,GTGACTTA,0.00059
12,AAGGTAAG,-0.0254
13,TATGCGCA,0.214
14,ATGACTTC,0.0987
15,GACGGCAA,0.014
16,ACTTTCCT,-0.00666
17,CGCAAGCC,0.114
18,CCGAATTC,0.109
19,GACATGAC,-0.0496
20,GGTAATTA,0.113
21,CGACGGCA,-0.0275
22,ATCACGGG,-0.0119
23,AAGCTCTA,-0.0141
24,CGCTGGAA,-0.158
25,GGAAGTAA,0.00119

row,Sequence,PBM E-score
1,CATTCCCC,0.157
2,ACCATGTC,-0.0503
3,CGGTTTTA,-0.0482
4,CCTAAGCA,-0.122
5,CTGCTATA,0.157
6,GCGTGACA,0.126
7,GAAATGCA,0.055
8,GCGCTGCC,-0.315
9,CAATCGAG,-0.0253
10,CAAAAGGG,0.159
11,TCTGCTCA,-0.112
12,GAAAAGAC,-0.0152
13,CGCCTTAC,-0.176
14,GACAAATC,0.0497
15,CTAAGACA,0.0315
16,AGGCCCTG,0.136
17,CCGGTTTC,0.00257
18,GAAAAAAA,0.133
19,CGCGCTGA,0.0409
20,AGCAGTCC,-0.0735
21,GACATTCA,0.0321
22,TTACTGAA,0.0899
23,GTACACGA,0.0505
24,CCGTATGA,0.0752
25,ATAGATAC,0.0874

row,Sequence,PBM E-score
1,GTCATAAC,0.00055
2,AGGCCAGA,0.0719
3,CCGGTTTA,-0.083
4,CCACCGGG,-0.172
5,CATTTAAA,0.208
6,GAATCATA,0.0301
7,AAAAGTGC,-0.00319
8,CATCACTA,-0.0874
9,CTAAACAG,-0.131
10,CCCCGACG,-0.0671
11,AACATGTG,0.176
12,CGGTGACA,-0.00256
13,CATAGCAC,0.0674
14,AACCCGCG,0.267
15,CTAAAGAG,-0.0979
16,CTAGACGC,-0.0456
17,CGTTACCA,0.101
18,CTTATTTC,0.222
19,ATTACTTA,0.104
20,CCGTACCA,0.116
21,GGCAGGAC,-0.0676
22,GAACGACA,0.0551
